Results are given in words; binding and its absence hold for the method and conditions named. Binding can be weak; no strength is given.
B1: Humabody® 1.1 (VHH)
VHH: QVQLVESGGGLVKPGGSLRLSCAASGFTFSDYTMTWMRQAPGKGLEWVSYISTGGTIKYYTDSVKGRFTISRDNAKNSLYLQMNSLRADDTAVYYCAREAPLRLGESPHDAFDIWGQGTMVTVSS
B2: Humabody® 1.57 (VHH)
VHH: QVQLVESGGGLVKPGGSLRLSCAASGFTFSDNSMTWMRQAPGKGLEWVSYISSGGGVIFYADSVKGRFTISRDNAKNSLYLQMNSLRADDTAVYYCAREAPLRLGESPHDAFDISGQGTMVTVSS
B3: Humabody® 1.92 (VHH)
VHH: EVQLVESGGGLVKPGGSLRLSCAASGFTFSDESMTWMRQAPGKGLEWVSYISSGGGVKFYADSVKGRFTISRDNAKNSLYLQMNSLRAEDTAVYYCAREAPLRLGESPHDAFDISGQGTMVTVSS
B4: 1.57-4GS-1.57 (protein)
chain: QVQLVESGGGLVKPGGSLRLSCAASGFTFSDNSMTWMRQAPGKGLEWVSYISSGGGVIFYADSVKGRFTISRDNAKNSLYLQMNSLRADDTAVYYCAREAPLRLGESPHDAFDISGQGTMVTVSSGGGGSGGGGSGGGGSGGGGSQVQLVESGGGLVKPGGSLRLSCAASGFTFSDNSMTWMRQAPGKGLEWVSYISSGGGVIFYADSVKGRFTISRDNAKNSLYLQMNSLRADDTAVYYCAREAPLRLGESPHDAFDISGQGTMVTVSS

These binders were tested against cynomolgus PD-1 recombinant protein (cynomolgus) (assay: HTRF binding assay).

binding, binds:
B1
B2
B3
B4

From patent US20230357405A1
